Laboratory results: patent publication US20190142860A1, “NUCLEIC ACID BASED TIA-1 INHIBITORS” (Aquinnah Pharmaceuticals, Inc., priority 2015, published 2019)
Results are given in words; binding and its absence hold for the method and conditions named. Some results given as binding are weak or reduced against the parent protein; the word gives no strength.

Chains of the proteins cited; added tags and fusions are not shown. Residues count along the entry.
UniProt P10637, residues 2-733: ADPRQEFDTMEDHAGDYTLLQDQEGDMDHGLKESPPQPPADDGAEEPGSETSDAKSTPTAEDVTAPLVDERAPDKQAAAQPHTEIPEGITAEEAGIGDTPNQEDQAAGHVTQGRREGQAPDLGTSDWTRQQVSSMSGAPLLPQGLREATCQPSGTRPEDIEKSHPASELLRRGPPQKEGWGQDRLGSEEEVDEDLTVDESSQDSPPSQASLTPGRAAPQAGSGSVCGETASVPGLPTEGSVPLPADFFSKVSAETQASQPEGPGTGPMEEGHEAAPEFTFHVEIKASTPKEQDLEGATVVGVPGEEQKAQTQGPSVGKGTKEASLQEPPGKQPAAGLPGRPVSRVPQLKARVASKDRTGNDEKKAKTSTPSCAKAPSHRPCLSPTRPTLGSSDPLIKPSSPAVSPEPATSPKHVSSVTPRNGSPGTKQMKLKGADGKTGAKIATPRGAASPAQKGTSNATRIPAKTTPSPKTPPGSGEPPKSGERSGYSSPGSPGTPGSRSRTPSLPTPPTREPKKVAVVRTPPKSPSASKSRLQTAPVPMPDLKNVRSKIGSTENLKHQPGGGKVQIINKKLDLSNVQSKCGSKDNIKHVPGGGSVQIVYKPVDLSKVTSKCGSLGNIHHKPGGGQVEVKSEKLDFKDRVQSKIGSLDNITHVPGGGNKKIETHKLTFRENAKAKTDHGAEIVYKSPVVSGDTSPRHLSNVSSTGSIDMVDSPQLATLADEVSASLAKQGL

Target: T1, Nucleolysin TIA-1 (endogenous mouse TIA1) (mouse) (UniProt P52912)
T1 sequence (looked up): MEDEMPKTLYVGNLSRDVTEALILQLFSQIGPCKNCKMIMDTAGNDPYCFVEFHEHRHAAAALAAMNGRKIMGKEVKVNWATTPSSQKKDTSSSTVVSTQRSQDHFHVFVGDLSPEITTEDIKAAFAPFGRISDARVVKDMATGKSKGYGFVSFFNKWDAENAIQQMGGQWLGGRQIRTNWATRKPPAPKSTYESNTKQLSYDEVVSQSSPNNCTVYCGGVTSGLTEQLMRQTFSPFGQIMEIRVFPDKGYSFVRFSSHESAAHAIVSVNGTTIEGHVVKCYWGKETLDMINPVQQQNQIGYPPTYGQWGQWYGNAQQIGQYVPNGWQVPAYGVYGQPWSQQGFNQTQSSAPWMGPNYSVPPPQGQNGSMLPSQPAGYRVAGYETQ
Experiment: TIA1 IP, LC-MS/MS and immunoblot, mouse cortex

## Microtubule-associated protein tau (endogenous mouse tau) (from UniProt P10637 2-733)
  binding: binds
